At least one structure is not confirmed: it was looked up by name or label, or the drawing left a doubt.
How the values were obtained:
BSP mRNA [1] = test: Northern blot determination of BSP mRNA in cell lines; format: cell-based, human; details: C4-2B4 cells; dexamethasone added to the media
BSP promoter = test: BSP promoter-driven luciferase reporter activity in transfected cells; format: cell-based, human; details: versus baseline (T media, 5% PBS), 1038, 1390 and 2186 bp constructs
Protocol: Cells ([…]) were exposed to a BSP promoter-luciferase vector (2.5 ug) with liposome mediated transfection for 4-6 hours, then allowed to grow approximately 2 days at which time cell lysates were obtained and assayed for relative luciferase activity (RLU). All values were standardized with cotransfection of CMV-betagalactosidase reporter plasmid (0.5 ug).

BSP mRNA [2] = details: stated as known; transcriptionally and post-transcriptionally; cited from earlier work

With `C[C@@H]1C[C@H]2[C@@H]3CCC4=CC(=O)C=C[C@]4(C)[C@@]3(F)[C@@H](O)C[C@]2(C)[C@@]1(O)C(=O)CO` [dexamethasone] as the compound, how does the “BSP expression (Northern blot)” value (BSP mRNA [1]) read?
Its value is “increased expression”.

And the “BSP promoter luciferase activity” value (BSP promoter; C4-2B4)?
The value was “stimulated”.

And the “BSP promoter luciferase activity” value (BSP promoter; PC-3)?
Its value is “decreased activity”.

And the “BSP promoter luciferase activity” value (BSP promoter; PC-3M)?
The value was “decreased activity”.

And the “expression of BSP” value (BSP mRNA [2])?
Its value is “increase expression of BSP”.
